Test results from article PMC11984871, “Perillaldehyde Improves Parkinson‐Like Deficits by Targeting G3BP Mediated Stress Granule Assembly in Preclinical Models” (Advanced Science, 2025).
These are yes or no findings as the source states them, for the method shown. In cells and extracts the contact can be indirect. Some entries that bind do so weakly or less than the wild type.

Amino acid sequences for entries named in this document (tags omitted).
UniProt Q9UBN7: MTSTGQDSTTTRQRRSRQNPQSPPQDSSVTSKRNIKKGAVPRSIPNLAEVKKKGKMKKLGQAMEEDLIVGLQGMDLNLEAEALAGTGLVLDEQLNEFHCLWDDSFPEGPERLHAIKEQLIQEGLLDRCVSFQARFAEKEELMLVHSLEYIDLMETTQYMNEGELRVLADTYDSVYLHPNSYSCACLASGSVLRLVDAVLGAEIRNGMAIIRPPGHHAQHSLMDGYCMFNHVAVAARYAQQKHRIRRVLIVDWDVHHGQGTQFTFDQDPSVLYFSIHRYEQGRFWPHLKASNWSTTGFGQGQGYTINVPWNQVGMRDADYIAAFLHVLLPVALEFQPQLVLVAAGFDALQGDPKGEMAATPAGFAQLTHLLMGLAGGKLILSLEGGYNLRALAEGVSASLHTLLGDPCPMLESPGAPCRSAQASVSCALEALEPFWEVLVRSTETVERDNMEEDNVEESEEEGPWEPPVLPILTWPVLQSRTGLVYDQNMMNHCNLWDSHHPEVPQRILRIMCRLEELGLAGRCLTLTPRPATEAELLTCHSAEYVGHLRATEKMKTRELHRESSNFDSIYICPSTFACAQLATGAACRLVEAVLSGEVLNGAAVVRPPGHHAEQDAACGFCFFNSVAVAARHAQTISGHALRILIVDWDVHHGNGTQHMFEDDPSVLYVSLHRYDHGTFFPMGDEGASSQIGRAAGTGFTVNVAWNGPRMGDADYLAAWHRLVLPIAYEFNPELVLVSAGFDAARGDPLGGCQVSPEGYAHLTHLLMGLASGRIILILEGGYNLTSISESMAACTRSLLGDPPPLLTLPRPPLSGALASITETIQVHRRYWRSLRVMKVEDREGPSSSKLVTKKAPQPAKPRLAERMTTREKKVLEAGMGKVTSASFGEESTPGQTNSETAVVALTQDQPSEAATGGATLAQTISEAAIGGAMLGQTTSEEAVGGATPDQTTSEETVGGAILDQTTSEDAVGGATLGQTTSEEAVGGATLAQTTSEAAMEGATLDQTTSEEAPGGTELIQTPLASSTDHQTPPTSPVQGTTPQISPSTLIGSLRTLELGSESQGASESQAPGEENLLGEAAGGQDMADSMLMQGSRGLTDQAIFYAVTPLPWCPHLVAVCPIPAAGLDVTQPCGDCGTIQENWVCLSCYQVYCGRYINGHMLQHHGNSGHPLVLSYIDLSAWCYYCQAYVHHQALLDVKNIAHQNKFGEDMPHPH
UniProt Q13283: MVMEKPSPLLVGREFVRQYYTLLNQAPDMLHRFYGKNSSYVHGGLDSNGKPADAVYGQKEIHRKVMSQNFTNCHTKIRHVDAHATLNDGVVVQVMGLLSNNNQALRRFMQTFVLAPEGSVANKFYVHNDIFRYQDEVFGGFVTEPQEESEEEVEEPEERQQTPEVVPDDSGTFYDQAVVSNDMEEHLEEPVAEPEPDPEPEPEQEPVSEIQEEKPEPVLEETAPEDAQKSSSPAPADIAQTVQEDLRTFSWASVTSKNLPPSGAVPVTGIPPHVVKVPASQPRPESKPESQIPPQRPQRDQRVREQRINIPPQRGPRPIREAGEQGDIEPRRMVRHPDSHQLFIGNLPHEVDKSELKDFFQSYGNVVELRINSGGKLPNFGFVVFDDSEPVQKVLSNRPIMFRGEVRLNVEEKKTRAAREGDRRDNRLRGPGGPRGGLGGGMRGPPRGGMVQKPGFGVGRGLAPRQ

Legend:
[1] = molecular target: Flag-HDAC6 (histone deacetylase 6), expressed from pCS2-Flag-HDAC6 in HEK293T cells (human (cloned from 293T cDNA)) (UniProt Q9UBN7); assay: co-IP; HEK293T cells co-transfected; RIPA lysate; anti-Flag beads overnight at 4 °C; washed with PBS, 0.05% Tween-20; blot with anti-Myc; cells also treated with DMSO or 100 × 10^−6 M PAE for 1 h
[2] = molecular target: G3BP1, endogenous in SH-SY5Y cells (human (endogenous in SH-SY5Y)) (UniProt Q13283); assay: co-IP; endogenous proteins of SH-SY5Y cells, untreated or treated with 100 × 10^−6 M 6-OHDA for 24 h; immunoprecipitation with an anti-G3BP1 antibody; blot with anti-HDAC6
[3] = molecular target: Flag-HDAC6, expressed from pCS2-Flag-HDAC6 in SH-SY5Y cells (human (cloned from 293T cDNA)) (UniProt Q9UBN7); assay: co-IP; SH-SY5Y cells transfected with mock vector or pCS2-Flag-HDAC6; pre-treated with DMSO or 100 × 10^−6 M PAE for 1 h, then DMSO or 100 × 10^−6 M 6-OHDA for 24 h; immunoprecipitation with anti-Flag; blot with anti-G3BP1

For “Myc-G3BP1 (Ras GTPase-activating protein-binding protein 1), expressed from pCS2-Myc-G3BP1 in HEK293T cells (from UniProt Q13283 1-466)”, the binding [1] was “binds”.
In the case of “HDAC6, endogenous in SH-SY5Y cells (from UniProt Q9UBN7 1-1215) (enzyme)”, the binding [2] is reported as “binds”.
“G3BP1, endogenous in SH-SY5Y cells (from UniProt Q13283 1-466)” was tested, and the binding [3] was “binds”.
